The text below walks through data of publication PMC8767726.

The chains behind the UniProt entries cited, without tags or fusion partners.
UniProt Q03135: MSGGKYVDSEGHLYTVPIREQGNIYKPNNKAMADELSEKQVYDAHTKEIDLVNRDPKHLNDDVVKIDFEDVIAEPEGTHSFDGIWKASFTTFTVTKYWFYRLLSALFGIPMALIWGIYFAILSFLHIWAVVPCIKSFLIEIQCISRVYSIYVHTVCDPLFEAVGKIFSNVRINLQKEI

This experiment has as its target caveolin 1 (CAV1) (human (endogenous in primary CAFs from patients' PDAC tissue)) (UniProt Q03135). Description: co-IP; CAF lysates in IP lysis buffer with protease inhibitors; indicated antibody or rabbit IgG control overnight at 4 °C, Dynabeads Protein A/G 3 h at 4 °C, western blot; CAFs with the indicated treatments (change of circFARP1 level).

Results are given in words; binding and its absence hold for the method and conditions named. In cells and extracts the contact can be indirect. Some results given as binding are weak or reduced against the parent protein; the word gives no strength.

B1: E3 ubiquitin-protein ligase zinc and ring finger 1 (ZNRF1) (enzyme, UniProt Q8ND25 1-227)
chain: MGGKQSTAARSRGPFPGVSTDDSAVPPPGGAPHFGHYRTGGGAMGLRSRSVSSVAGMGMDPSTAGGVPFGLYTPASRGTGDSERAPGGGGSASDSTYAHGNGYQETGGGHHRDGMLYLGSRASLADALPLHIAPRWFSSHSGFKCPICSKSVASDEMEMHFIMCLSKPRLSYNDDVLTKDAGECVICLEELLQGDTIARLPCLCIYHKSCIDSWFEVNRSCPEHPAD
Consider B1, for which the binding result is “binds”.
